# No constants are given. Whether binding was seen depends on the method and setting. Some binding calls cover weakened binding; strength is not graded here.
# T1: Sas-4 (Drosophila), Q9VI72
# T1 chain: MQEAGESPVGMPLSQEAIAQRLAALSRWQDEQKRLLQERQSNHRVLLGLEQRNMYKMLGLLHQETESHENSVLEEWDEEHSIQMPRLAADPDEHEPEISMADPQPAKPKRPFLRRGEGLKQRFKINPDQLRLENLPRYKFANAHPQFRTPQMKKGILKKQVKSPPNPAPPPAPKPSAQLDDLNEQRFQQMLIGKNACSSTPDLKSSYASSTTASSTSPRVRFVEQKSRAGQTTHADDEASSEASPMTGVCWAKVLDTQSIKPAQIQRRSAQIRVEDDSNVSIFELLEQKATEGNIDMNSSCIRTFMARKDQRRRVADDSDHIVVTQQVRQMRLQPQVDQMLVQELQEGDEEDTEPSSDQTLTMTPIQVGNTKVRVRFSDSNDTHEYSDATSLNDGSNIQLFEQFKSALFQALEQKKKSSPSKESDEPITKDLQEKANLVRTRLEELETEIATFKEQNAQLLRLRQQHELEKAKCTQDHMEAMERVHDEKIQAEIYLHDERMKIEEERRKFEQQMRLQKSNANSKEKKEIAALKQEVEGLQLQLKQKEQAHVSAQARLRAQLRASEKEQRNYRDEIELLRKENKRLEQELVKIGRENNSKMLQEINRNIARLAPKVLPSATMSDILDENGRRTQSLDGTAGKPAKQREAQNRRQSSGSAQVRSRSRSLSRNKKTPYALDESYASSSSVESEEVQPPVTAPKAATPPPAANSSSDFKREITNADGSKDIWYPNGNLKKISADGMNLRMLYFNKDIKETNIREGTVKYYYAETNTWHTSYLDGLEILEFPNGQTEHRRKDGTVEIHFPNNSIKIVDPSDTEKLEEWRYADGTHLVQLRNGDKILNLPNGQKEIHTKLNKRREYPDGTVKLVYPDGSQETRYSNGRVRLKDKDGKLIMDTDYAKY
# T2: Plk4 (Drosophila) (UniProt O97143)
# T2 sequence: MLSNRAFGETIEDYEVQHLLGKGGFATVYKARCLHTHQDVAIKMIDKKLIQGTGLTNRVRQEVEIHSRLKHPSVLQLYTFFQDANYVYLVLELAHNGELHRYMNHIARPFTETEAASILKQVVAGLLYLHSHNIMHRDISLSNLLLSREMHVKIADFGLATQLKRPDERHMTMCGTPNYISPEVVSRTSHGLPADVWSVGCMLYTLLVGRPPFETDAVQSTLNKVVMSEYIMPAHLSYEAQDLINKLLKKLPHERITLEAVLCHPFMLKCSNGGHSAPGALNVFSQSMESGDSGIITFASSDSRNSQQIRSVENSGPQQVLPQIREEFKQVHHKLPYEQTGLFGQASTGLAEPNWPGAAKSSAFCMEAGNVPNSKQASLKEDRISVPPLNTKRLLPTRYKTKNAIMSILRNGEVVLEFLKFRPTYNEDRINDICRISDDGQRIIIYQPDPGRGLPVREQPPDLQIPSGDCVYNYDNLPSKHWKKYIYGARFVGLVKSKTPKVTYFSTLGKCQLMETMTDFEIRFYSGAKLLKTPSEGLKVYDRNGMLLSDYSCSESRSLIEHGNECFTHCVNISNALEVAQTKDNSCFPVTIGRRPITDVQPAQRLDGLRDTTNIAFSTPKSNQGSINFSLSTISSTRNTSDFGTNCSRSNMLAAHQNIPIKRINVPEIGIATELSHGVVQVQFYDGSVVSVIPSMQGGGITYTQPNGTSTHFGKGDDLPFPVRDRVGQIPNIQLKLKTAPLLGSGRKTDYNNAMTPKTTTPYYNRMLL
# B1: Sas-4, Q9VI72 1-901 (protein)
# chain: T1 chain
# B2: Ana2 (protein, UniProt Q9XZ31 1-420)
# chain: MFVPETEDMLPRLAPRPSAAVPMGHTNEIIGPTVPEVSILFGQPPQDPQMQPQQPNHAHQESSPRAAPTFASWKKQMLPRVNFSPILATELGPRTAPSSNSPCSSKEYQVMPRDRNYASDAQQTTNHMNCNAGGYNAEPKQQAYQSRRLSSSSNADVLTICAGTQTDPFNPSPPRKSLPQVVYSDIDVSNLANKSDLAALVSLVESVRHEQQQLRNLCEMILEQQQRAKPEAISKASSTTGTQCDILTTNQAGRRLSPIMQDYIAEEEEPLPPPQARVIPQFPSPRPHPPIAQSTGYRANTPQAKRIPQLAKPNTEKSMVMNELALKYLRQPVDELMKDMRLGASPKSPNPEPLRPIDNIGHAQSPNDISNASYKYLKKYRLLPEEQLEPVCPQSPMAATAPSPHIQLDLENIRNQPKLL
# B3: Asl (protein, UniProt Q9VNE4 1-994)
# chain: MNTPGISLFQGADALNINSTLDRQEEEEALQDQKRREEELGRIMVNAFDDLLDEENTIDSTTNYQSELEQPPVLPNYPSHPHHKPLQDDAQRANEIEMHRLQILLESKNNELQNVNQVANAAHKKLDDLQKHLSIMQAELDRAIREKQNTHELLVETKETCSNKDSDLDKLRSEKKQLEEDNTRLVGQLEAAKTLLTDVQSKYDMVQASKQKWEERNADLRLKQMEEAHRAQSDLLQQQLCQMKDQLDRKQNELDQINSRYNALQSGHETMLVDKAAKINELSQALDEAQMRCNQLSARPDLQAENRRQQQCIVDLKARIAYLEQTVASLHERLNETTTELDLIDSVIQQHQADESPTSRLSQMGGSRLVGSTPLNPLDRVGHIKQELYRALGNLKNKREEVRRLEKLLEERNQELRVLRDQENQSLVQLETLNEGKMRLENKVKAMQQELEEQKHRSQQESDVHSQLNSIVAERDALREKRQQIEEDLEQLKQQNESLQRNYDQLSQENRQLRTRETADNLRLELERHKILLRDSQSEVERLKKLYSDIATDKESLGYELRKLRESDTLKELQDQRQNLATVQRNLQLAEMKSEELKKLLETEKLSHERDLQALRQRSEREKREEAVAVAKESSENCSKCIESIAEITKAEIQLLKLQNVNSMQAKELKELEHALEQSKNLQAEMQEKIELSNKQDELISDLKERAKQFEAYIRQQEEHKQQNKCTPSPKSNSVSPSDPSPKELTQNRIRLIEQRVRDEMAKLFAAELKRFTNRLQKSEERSQCLQREYQTVCAELQQRQTEVDLLKQTILAERENIDEILAGREEKQKEMLQKCRQELQAKNQRIAELLREVEEQHASIDSERQSMKAVMAQWEKQRQSVDQVEHHWRQQLESLRSTHEEAMRSAQQRYQSAKRTAHNYKLYAEDKEAHMKREYERIKHEYELSLAKIEATMNQHLERRSREKHRDKENVPSNSSSDPITNSNRKPKGNGHS
# Columns and labels:
# [1] = biological target: T1, Sas-4 (Drosophila), Q9VI72; assay: two-hybrid; array-based mating screen (modified Matchmaker Gold; Y2HGold x Y187), every construct as bait and as prey; interactions reported at the highest stringency (QDOXA plates), 30 °C, scored 0-3; settings: remark: other sources report otherwise
# Plk4 (Drosophila) = biological target: T2, Plk4 (Drosophila); assay: as above
Binder,binding [1],binding (Plk4 (Drosophila))
B1,binds,
B2,,binds
B3,,binds
